# Experimental data: PubChem BioAssay AID652243 (Drosophila RNAi Screening Center, 2013)
# Test: 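Knock-downs that decrease or increase androgen receptor reporter signal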 (primary screen)
# Cell system: Drosophila S2R+ cells
# Reagent: long dsRNA against Drosophila genes
# Duration: 72 h (48 h, then 24 h hormone)
# Conditions: synthetic androgen R1881 at 10 nM for 24 h
# Measured: 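Firefly light from an androgen-responsive reporter and Renilla control light per well, raw and unnormalised, for each of two replicates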
# Reading the numbers: firefly reporter light: higher = more light from androgen-responsive reporter; Renilla control light: higher = more constitutive control signal (cell number, transfection)
# Active means: 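Across duplicate plates, a knock-down whose log firefly/Renilla ratio shifted a set fold down or up from the GFP/LacZ control mean was a hit; the downward cut appears as both 1.5 and 3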
# Calls: active = hit: reporter lowered or raised; inactive = no hit
# The deposit covers about 24,000 reagents; below is a random part of those with a known target gene and a result. In the full data, 246 (1%) were called active. 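Plates not normalised; calls are printed but the firefly/Renilla ratio behind them is not deposited; fold cut for lowering reported inconsistently.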 Raw values are not corrected between plates. A plus sign joins genes that one reagent is predicted to hit. Not given: the amount of reagent.
predicted target,DRSC id,"firefly reporter light, replicate 1","firefly reporter light, replicate 2","Renilla control light, replicate 1","Renilla control light, replicate 2",Call
MED4 (Mediator complex subunit 4),DRSC11014,5.67e5,4.08e5,1.23e6,1.10e6,inactive
MED4 (Mediator complex subunit 4),DRSC25135,2.16e5,2.07e5,5.55e5,4.05e5,inactive
HemK2 + Snapin,DRSC00736,6.53e5,8.90e5,2.25e6,1.78e6,inactive
CG32106,DRSC09219,2.06e5,1.76e5,4.43e5,3.68e5,inactive
Pdk1 (Phosphoinositide-dependent kinase 1),DRSC08682,37078,67556,4.55e5,4.64e5,inactive
Pdk1 (Phosphoinositide-dependent kinase 1),DRSC27069,2.33e5,1.49e5,5.78e5,4.69e5,inactive
Pdk1 (Phosphoinositide-dependent kinase 1),DRSC37029,,,,,inactive
Obp83a (Odorant-binding protein 83a),DRSC12362,59990,1.07e5,1.10e6,1.05e6,inactive

4 successive entries already listed, quoted:
predicted target,DRSC id,"firefly reporter light, replicate 1","firefly reporter light, replicate 2","Renilla control light, replicate 1","Renilla control light, replicate 2",Call
MED4 (Mediator complex subunit 4),DRSC25135,2.16e5,2.07e5,5.55e5,4.05e5,inactive
HemK2 + Snapin,DRSC00736,6.53e5,8.90e5,2.25e6,1.78e6,inactive
CG32106,DRSC09219,2.06e5,1.76e5,4.43e5,3.68e5,inactive
Pdk1 (Phosphoinositide-dependent kinase 1),DRSC08682,37078,67556,4.55e5,4.64e5,inactive

Further records follow:
predicted target,DRSC id,"firefly reporter light, replicate 1","firefly reporter light, replicate 2","Renilla control light, replicate 1","Renilla control light, replicate 2",Call
CG13631,DRSC23168,1.11e6,8.90e5,1.75e6,1.29e6,inactive
CG13631,DRSC28727,5.01e5,5.49e5,1.41e6,1.48e6,inactive
nSyb (neuronal Synaptobrevin),DRSC08727,3.81e5,3.45e5,1.27e6,8.02e5,inactive
nSyb (neuronal Synaptobrevin),DRSC22961,8.32e5,9.56e5,1.08e6,1.38e6,inactive
nSyb (neuronal Synaptobrevin),DRSC27077,3.46e5,3.54e5,7.87e5,7.45e5,inactive
nSyb (neuronal Synaptobrevin),DRSC29975,4.86e5,4.86e5,1.17e6,8.98e5,inactive
Abp1 (Actin binding protein 1),DRSC09693,2.85e5,1.40e5,1.80e6,1.56e6,inactive
CG14556,DRSC14899,1.80e5,1.70e5,2.27e6,2.92e6,inactive
CG9386,DRSC16485,1.10e5,1.24e5,1.51e6,1.70e6,inactive
CG9302,DRSC03191,4.08e5,4.35e5,2.39e6,3.45e6,inactive
RhoGEF2 (Rho guanine nucleotide exchange factor 2),DRSC07531,6.16e5,4.02e5,5.94e5,5.18e5,inactive
RhoGEF2 (Rho guanine nucleotide exchange factor 2),DRSC29373,4.46e5,3.19e5,1.28e6,1.28e6,inactive
CG3706,DRSC18649,4.28e5,2.78e5,6.32e6,3.68e6,inactive
fd59A (forkhead domain 59A),DRSC04685,9.05e5,6.01e5,1.65e6,1.55e6,inactive
fd59A (forkhead domain 59A),DRSC25524,3.95e5,3.16e5,3.83e5,3.79e5,inactive
Tollo,DRSC11305,1.98e5,1.84e5,1.70e6,1.47e6,inactive
